Source: doi:10.1101/2025.07.20.665556

Assays:
[1] = target: T1, TIA-1 related protein (TIA-R) (human (endogenous in frontal cortex tissue)), Q01085; assay: affinity purification with mass spectrometry; settings: remark: other sources report otherwise
T1 chain: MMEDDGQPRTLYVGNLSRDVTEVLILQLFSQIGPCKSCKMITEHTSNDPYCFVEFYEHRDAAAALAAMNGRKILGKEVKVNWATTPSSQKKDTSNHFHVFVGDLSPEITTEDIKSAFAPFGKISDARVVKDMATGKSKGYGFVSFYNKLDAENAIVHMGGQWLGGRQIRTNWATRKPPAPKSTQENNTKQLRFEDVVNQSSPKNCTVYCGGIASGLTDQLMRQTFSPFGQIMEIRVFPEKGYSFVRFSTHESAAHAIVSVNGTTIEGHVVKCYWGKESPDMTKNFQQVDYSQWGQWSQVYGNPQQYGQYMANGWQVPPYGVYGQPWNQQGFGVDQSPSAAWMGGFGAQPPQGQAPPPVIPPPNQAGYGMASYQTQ

[2] = target: T2, TIA-1 related protein (TIA-R) (human (endogenous in frontal cortex tissue)) (UniProt Q01085); assay: affinity purification with mass spectrometry
T2 sequence: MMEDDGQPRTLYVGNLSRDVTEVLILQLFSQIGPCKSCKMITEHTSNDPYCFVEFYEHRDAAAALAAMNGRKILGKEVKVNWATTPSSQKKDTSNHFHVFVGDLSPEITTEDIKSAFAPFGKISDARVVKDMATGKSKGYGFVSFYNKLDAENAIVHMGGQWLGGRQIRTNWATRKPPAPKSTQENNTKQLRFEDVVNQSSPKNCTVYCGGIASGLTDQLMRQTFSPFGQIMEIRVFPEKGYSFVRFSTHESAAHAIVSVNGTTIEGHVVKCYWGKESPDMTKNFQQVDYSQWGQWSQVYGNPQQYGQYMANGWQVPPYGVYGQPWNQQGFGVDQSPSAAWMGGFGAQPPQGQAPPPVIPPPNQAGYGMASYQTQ

B1: DDX6, P26196 1-483 (protein)
chain: MSTARTENPVIMGLSSQNGQLRGPVKPTGGPGGGGTQTQQQMNQLKNTNTINNGTQQQAQSMTTTIKPGDDWKKTLKLPPKDLRIKTSDVTSTKGNEFEDYCLKRELLMGIFEMGWEKPSPIQEESIPIALSGRDILARAKNGTGKSGAYLIPLLERLDLKKDNIQAMVIVPTRELALQVSQICIQVSKHMGGAKVMATTGGTNLRDDIMRLDDTVHVVIATPGRILDLIKKGVAKVDHVQMIVLDEADKLLSQDFVQIMEDIILTLPKNRQILLYSATFPLSVQKFMNSHLQKPYEINLMEELTLKGVTQYYAYVTERQKVHCLNTLFSRLQINQSIIFCNSSQRVELLAKKISQLGYSCFYIHAKMRQEHRNRVFHDFRNGLCRNLVCTDLFTRGIDIQAVNVVINFDFPKLAETYLHRIGRSGRFGHLGLAINLITYDDRFNLKSIEEQLGTEIKPIPSNIDKSLYVAEYHSEPVEDEKP
B1 was tested, and the binding [1] was “binds”.

B2: HNRNPL (protein, UniProt P14866 1-589)
chain: MSRRLLPRAEKRRRRLEQRQQPDEQRRRSGAMVKMAAAGGGGGGGRYYGGGSEGGRAPKRLKTDNAGDQHGGGGGGGGGAGAAGGGGGGENYDDPHKTPASPVVHIRGLIDGVVEADLVEALQEFGPISYVVVMPKKRQALVEFEDVLGACNAVNYAADNQIYIAGHPAFVNYSTSQKISRPGDSDDSRSVNSVLLFTILNPIYSITTDVLYTICNPCGPVQRIVIFRKNGVQAMVEFDSVQSAQRAKASLNGADIYSGCCTLKIEYAKPTRLNVFKNDQDTWDYTNPNLSGQGDPGSNPNKRQRQPPLLGDHPAEYGGPHGGYHSHYHDEGYGPPPPHYEGRRMGPPVGGHRRGPSRYGPQYGHPPPPPPPPEYGPHADSPVLMVYGLDQSKMNCDRVFNVFCLYGNVEKVKFMKSKPGAAMVEMADGYAVDRAITHLNNNFMFGQKLNVCVSKQPAIMPGQSYGLEDGSCSYKDFSESRNNRFSTPEQAAKNRIQHPSNVLHFFNAPLEVTEENFFEICDELGVKRPSSVKVFSGKSERSSSGLLEWESKSDALETLGFLNHYQMKNPNGPYPYTLKLCFSTAQHAS
B2 was tested, and the binding [2] was “binds”.

B3: PLCB3 (protein, UniProt Q01970 1-1234)
chain: MAGAQPGVHALQLEPPTVVETLRRGSKFIKWDEETSSRNLVTLRVDPNGFFLYWTGPNMEVDTLDISSIRDTRTGRYARLPKDPKIREVLGFGGPDARLEEKLMTVVSGPDPVNTVFLNFMAVQDDTAKVWSEELFKLAMNILAQNASRNTFLRKAYTKLKLQVNQDGRIPVKNILKMFSADKKRVETALESCGLKFNRSESIRPDEFSLEIFERFLNKLCLRPDIDKILLEIGAKGKPYLTLEQLMDFINQKQRDPRLNEVLYPPLRPSQARLLIEKYEPNQQFLERDQMSMEGFSRYLGGEENGILPLEALDLSTDMTQPLSAYFINSSHNTYLTAGQLAGTSSVEMYRQALLWGCRCVELDVWKGRPPEEEPFITHGFTMTTEVPLRDVLEAIAETAFKTSPYPVILSFENHVDSAKQQAKMAEYCRSIFGDALLIEPLDKYPLAPGVPLPSPQDLMGRILVKNKKRHRPSAGGPDSAGRKRPLEQSNSALSESSAATEPSSPQLGSPSSDSCPGLSNGEEVGLEKPSLEPQKSLGDEGLNRGPYVLGPADREDEEEDEEEEEQTDPKKPTTDEGTASSEVNATEEMSTLVNYIEPVKFKSFEAARKRNKCFEMSSFVETKAMEQLTKSPMEFVEYNKQQLSRIYPKGTRVDSSNYMPQLFWNVGCQLVALNFQTLDVAMQLNAGVFEYNGRSGYLLKPEFMRRPDKSFDPFTEVIVDGIVANALRVKVISGQFLSDRKVGIYVEVDMFGLPVDTRRKYRTRTSQGNSFNPVWDEEPFDFPKVVLPTLASLRIAAFEEGGKFVGHRILPVSAIRSGYHYVCLRNEANQPLCLPALLIYTEASDYIPDDHQDYAEALINPIKHVSLMDQRARQLAALIGESEAQAGQETCQDTQSQQLGSQPSSNPTPSPLDASPRRPPGPTTSPASTSLSSPGQRDDLIASILSEVAPTPLDELRGHKALVKLRSRQERDLRELRKKHQRKAVTLTRRLLDGLAQAQAEGRCRLRPGALGGAADVEDTKEGEDEAKRYQEFQNRQVQSLLELREAQVDAEAQRRLEHLRQALQRLREVVLDANTTQFKRLKEMNEREKKELQKILDRKRHNSISEAKMRDKHKKEAELTEINRRHITESVNSIRRLEEAQKQRHDRLVAGQQQVLQQLAEEEPKLLAQLAQECQEQRARLPQEIRRSLLGEMPEGLGDGPLVACASNGHAPGSSGHLSGADSESQEENTQL
With B3 the binding [2] was “binds”.

B4: EEF1B2 (protein, UniProt P24534 1-225)
chain: MGFGDLKSPAGLQVLNDYLADKSYIEGYVPSQADVAVFEAVSSPPPADLCHALRWYNHIKSYEKEKASLPGVKKALGKYGPADVEDTTGSGATDSKDDDDIDLFGSDDEEESEEAKRLREERLAQYESKKAKKPALVAKSSILLDVKPWDDETDMAKLEECVRSIQADGLVWGSSKLVPVGYGIKKLQIQCVVEDDKVGTDMLEEQITAFEDYVQSMDVAAFNKI
For B4, the binding [2] was “binds”.

B5: SEPTIN7 (protein, UniProt Q16181 1-437)
chain: MSVSARSAAAEERSVNSSTMVAQQKNLEGYVGFANLPNQVYRKSVKRGFEFTLMVVGESGLGKSTLINSLFLTDLYSPEYPGPSHRIKKTVQVEQSKVLIKEGGVQLLLTIVDTPGFGDAVDNSNCWQPVIDYIDSKFEDYLNAESRVNRRQMPDNRVQCCLYFIAPSGHGLKPLDIEFMKRLHEKVNIIPLIAKADTLTPEECQQFKKQIMKEIQEHKIKIYEFPETDDEEENKLVKKIKDRLPLAVVGSNTIIEVNGKRVRGRQYPWGVAEVENGEHCDFTILRNMLIRTHMQDLKDVTNNVHYENYRSRKLAAVTYNGVDNNKNKGQLTKSPLAQMEEERREHVAKMKKMEMEMEQVFEMKVKEKVQKLKDSEAELQRRHEQMKKNLEAQHKELEEKRRQFEDEKANWEAQQRILEQQNSSRTLEKNKKKGKIF
With B5 the binding [2] was “binds”.

B6: SERPINH1 (protein, UniProt P50454 19-418)
chain: AEVKKPAAAAAPGTAEKLSPKAATLAERSAGLAFSLYQAMAKDQAVENILVSPVVVASSLGLVSLGGKATTASQAKAVLSAEQLRDEEVHAGLGELLRSLSNSTARNVTWKLGSRLYGPSSVSFADDFVRSSKQHYNCEHSKINFRDKRSALQSINEWAAQTTDGKLPEVTKDVERTDGALLVNAMFFKPHWDEKFHHKMVDNRGFMVTRSYTVGVMMMHRTGLYNYYDDEKEKLQIVEMPLAHKLSSLIILMPHHVEPLERLEKLLTKEQLKIWMGKMQKKAVAISLPKGVVEVTHDLQKHLAGLGLTEAIDKNKADLSRMSGKKDLYLASVFHATAFELDTDGNPFDQDIYGREELRSPKLFYADHPFIFLVRDTQSGSLLFIGRLVRPKGDKMRDEL
In the case of B6, the binding [2] is reported as “binds”.

Results are given in words; binding and its absence hold for the method and conditions named. In cells and extracts the contact can be indirect. Here binding means that the protein was enriched with, or labelled near, the bait; the list need not be complete.
